Measurements from “University of Dundee, Small-Polar-MMV Screening Library” (2021), ChEMBL document CHEMBL3988442.

By UniProt entry, the sequences of proteins in these tests, tags left out.
UniProt P9WFT3, whole entry: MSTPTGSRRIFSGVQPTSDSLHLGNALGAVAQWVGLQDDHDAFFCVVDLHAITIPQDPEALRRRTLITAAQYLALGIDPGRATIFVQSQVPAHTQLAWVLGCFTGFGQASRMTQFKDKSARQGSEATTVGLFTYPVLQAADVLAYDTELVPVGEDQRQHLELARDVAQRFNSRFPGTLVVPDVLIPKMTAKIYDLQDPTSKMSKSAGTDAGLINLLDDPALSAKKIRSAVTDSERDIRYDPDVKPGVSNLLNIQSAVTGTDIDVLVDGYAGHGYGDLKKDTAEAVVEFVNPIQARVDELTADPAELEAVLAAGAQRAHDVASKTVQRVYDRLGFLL
UniProt P9WNZ1, whole entry: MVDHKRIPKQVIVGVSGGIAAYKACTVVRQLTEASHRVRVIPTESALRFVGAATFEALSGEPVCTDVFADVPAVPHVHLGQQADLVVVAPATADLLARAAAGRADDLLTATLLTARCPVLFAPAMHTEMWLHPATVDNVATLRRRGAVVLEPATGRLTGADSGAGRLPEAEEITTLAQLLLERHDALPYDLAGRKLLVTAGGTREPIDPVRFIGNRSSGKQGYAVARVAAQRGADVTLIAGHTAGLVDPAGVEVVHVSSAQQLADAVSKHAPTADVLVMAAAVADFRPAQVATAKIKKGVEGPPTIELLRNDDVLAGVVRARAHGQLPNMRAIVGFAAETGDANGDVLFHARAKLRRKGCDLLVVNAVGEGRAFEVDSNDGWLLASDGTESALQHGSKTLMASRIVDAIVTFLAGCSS

Leishmania in macrophages: 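Cell assay of Leishmania donovani living inside macrophages; the read-out is not stated. Concentration: 30 µM. The record gives no direction; compounds that gave an IC50 in retests scored well above the rest, so higher reads as stronger inhibition. About 69,000 compounds were tested under these conditions; 1.5% (about 1,000) showed 50% or more at least once.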
MtTrpRS: 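Tryptophan-tRNA ligase, Mycobacterium tuberculosis (UniProt P9WFT3). Enzyme assay of tryptophanyl-tRNA synthetase; the read-out is not stated. Tested at 10 µM. Higher most likely means stronger inhibition; the record gives no direction and few retests gave an IC50. Size under these conditions: about 65,000 compounds, about 64 of them at 50% or above in at least one test.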
Toxoplasma: 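Assay of Toxoplasma gondii numbers, read through their beta-galactosidase reporter with a colour substrate. Compounds at 10 µM. Higher reads as fewer parasites (inferred from which compounds were picked for retests). About 67,000 compounds were tested under these conditions; 0.38% (about 260) showed 50% or more at least once.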
CoaBC: 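Coenzyme A biosynthesis protein CoaBC, Mycobacterium tuberculosis (UniProt P9WNZ1). Enzyme assay of CoaBC with a phosphate dye (Biomol Green) read at 650 nm. Tested at 30 µM. Direction is inferred from only a few compounds that gave an IC50; most scored high, so higher reads as stronger inhibition. Most strong results did not repeat in a second test. About 67,000 compounds were tested under these conditions; 0.06% (about 40) showed 50% or more at least once.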

Each number is a percent effect as filed.
The record does not define 0% and 100%; most values in the screen are far below 50% and negative numbers occur (in some assays of this library far below -100).
Compounds were drawn at random from those tested, without regard to their results.
Two or more numbers in one place are separate tests of the same structure; such repeats can differ widely.
A dash means the value is not listed here; it may have been measured.

| # | structure | Leishmania in macrophages | MtTrpRS | Toxoplasma | CoaBC |
|---|---|---|---|---|---|
| 1 | `CC(C)CCN1CC2(CCN(C3CCCOC3)CC2)OC1=O` (centres unmarked) | 7.205 | 4.855 | -9.002 | 3.739 |
| 2 | `Cc1cc2c(cc1C)C(NCc1nnc3n1CCCCC3)CCCO2` (centres unmarked) | 7.16 | 0.6706 | -0.05316 | 9.251 |
| 3 | `O=C(CN1C(=O)CCC1=O)N1CCC(S(=O)(=O)Cc2ccco2)CC1` | 25.06 | 0.1715 | 8.732 | 3.782 |
| 4 | `O=C(c1ncoc1-c1ccco1)N(Cc1ccco1)CC1CCCO1` (centres unmarked) | -4.356 | 1.272 | -5.641 | 6.21 |
| 5 | `O=C1NCC2(CCCN(C(=O)c3ccc4c(c3)CCO4)C2)O1` (centres unmarked) | -15.89 | -1.397 | 4.813 | -10.26 |
| 6 | `CCS(=O)(=O)N1C[C@H]2C[C@H](C(=O)N(C)C)[C@@H](C1)O2` | - | 2.291 | - | -13.99 |
| 7 | `CCOc1ccc(CC(=O)N2CCN(c3nccn3C)CC2)cc1` | - | 1.654 | - | 1.901 |
| 8 | `O=S(=O)(Cc1ccon1)N1CCN(c2ccncc2Cl)CC1` | -10.98 | -2.849 | 0.4545 | 4.669 |
| 9 | `CCc1noc(C)c1C(=O)N1CCCC1Cn1cccn1` (centres unmarked) | 4.981 | -4.302 | 13.98 | -2.738 |
| 10 | `O=C1CN(C(=O)CCn2c(C(F)(F)F)cc3cccnc32)CCN1` | 24.13 & 11.17 | 10.03 | -6.253 | 5.839 |
| 11 | `Cc1cc2nc(C(C)C)cc(NCc3ccncc3)n2n1` | -21.95 | 0 | -2.314 | 2.299 |
| 12 | `Cc1cnc(N2CCC3(C2)CN(S(=O)(=O)C2CC2)C3)nc1` | 12.52 | -2.535 | -17.61 | 0.4926 |
| 13 | `Cc1nc(C2CN(C)CCO2)cc(N2CCC(C(N)=O)CC2)n1` (centres unmarked) | -1.477 | - | 9.036 | 2.107 |
| 14 | `CC(C)Oc1cc(N2CCC(C(N)=O)CC2)nc(N)n1` | 14.18 | 1.2 | 8.871 | -2.564 |
| 15 | `Cc1ccsc1C(=O)N1CCCn2nnc(Cn3cccn3)c2C1` | 5.019 | 17.67 | 5.179 | 12.83 |
| 16 | `Cc1ccccc1CN(CCN(C)C)Cc1ccc(S(C)(=O)=O)cc1` | 25.26 | -1.847 | 8.886 | -19.65 |
| 17 | `[H][C@]12C[C@H](CNC(=O)c3cccn3C)O[C@@]1([H])CN(C(=O)c1ccco1)C2` | 33.71 | - | -3.057 | - |
| 18 | `Cn1ccnc1CN1CCC2(CC1)COC2` | - | - | - | 6.424 |
| 19 | `CNC(=O)C1CCC2(CCN(c3nncs3)CC2)CO1.O=C(O)C(F)(F)F` (centres unmarked) | 28.21 | - | 2.772 | - |
| 20 | `COCCNc1nc(-c2ccc(S(=O)(=O)N3CCCCC3)cc2)cs1` | 20.43 | -6.549 | -4.005 | 6.452 |
| 21 | `CC1COc2ccccc2N1C(=O)c1cscn1` (centres unmarked) | 5.432 | 0.2863 | 1.311 | 4.263 |
| 22 | `O=C(O)C(F)(F)F.O=C(O)C(F)(F)F.O=C(O)C(F)(F)F.[H][C@]12CCN(Cc3ccccn3)[C@@]1([H])CC[C@H](COCc1ccccn1)O2` | 13.53 | - | 17.2 | - |
| 23 | `Cc1cccc(OC2CCN(C(=O)Cn3ccc4ccccc43)CC2)n1` | 21.85 & 10.21 | -3.419 | 0.9009 | 9.091 |
| 24 | `Cc1cc(CN2CCC(O)(Cn3ccc4ncccc43)CC2)c(C)s1` | 9.534 | - | -11.02 | 2.941 |
| 25 | `Cn1cc(C(=O)N2CCCN(C3Cc4ccccc4C3)CC2)cn1` | 31.46 | 8.998 | 1.082 | 5.854 |
| 26 | `[H][C@]12CN(C(=O)C3CC(F)(F)C3)C[C@@]1([H])OCCN(S(C)(=O)=O)C2` | 17.68 | - | -8.557 | - |
| 27 | `CCn1cnnc1Cn1cccc(C(F)(F)F)c1=O` | -10.7 | 3.945 | -7.465 | 2.101 |
| 28 | `CC(C)C(Nc1nc(C(F)(F)F)nc2ccccc12)C(=O)O` (centres unmarked) | 20.41 | -6.876 | 9.63 | -9.208 |
| 29 | `Cn1nnc(C2(NC(=O)c3ccccc3)CCCC2)n1` | 8.721 | -1.49 | - | 1.107 |
| 30 | `[H][C@]12CC[C@]([H])(CN(S(=O)(=O)N(CC)CC)C1)N(Cc1cscn1)C2=O` | 0.7762 | - | 17.13 | - |
| 31 | `COc1ccccc1OCC(=O)NCc1ncc(C)c(OC)c1C` | 22.13 | 2.099 | 2.17 | -0.9804 |
| 32 | `Cc1ccc(CC(=O)N2CCOC(c3ncc(CN(C)C)[nH]3)C2)s1` (centres unmarked) | 17.67 | -2.607 | -8.444 | 1.942 |
| 33 | `CC(NC(=O)c1cc(N2CCNC2=O)ccc1F)c1ccc(F)cc1` (centres unmarked) | 32.5 | 1.095 | 9.638 | -2.372 |
| 34 | `CN(C)c1ccc(CN2CCC(C(O)Cc3ccccc3)CC2)cn1` (centres unmarked) | 25.31 | -2.189 | -9.005 | 2.622 |
| 35 | `O=C1COC2(CCN(Cc3ccncc3)CC2)CN1c1ccccc1` | - | 3.239 | - | 4.362 |

4 of the entries, repeated:

[H][C@]12CN(C(=O)C3CC(F)(F)C3)C[C@@]1([H])OCCN(S(C)(=O)=O)C2 gave Leishmania in macrophages: 17.68%; Toxoplasma: -8.557%.
[H][C@]12CC[C@]([H])(CN(S(=O)(=O)N(CC)CC)C1)N(Cc1cscn1)C2=O gave Leishmania in macrophages: 0.7762%; Toxoplasma: 17.13%.
O=C1CN(C(=O)CCn2c(C(F)(F)F)cc3cccnc32)CCN1 gave Leishmania in macrophages: 24.13% & 11.17%; MtTrpRS: 10.03%; Toxoplasma: -6.253%; CoaBC: 5.839%.
Cn1nnc(C2(NC(=O)c3ccccc3)CCCC2)n1 gave Leishmania in macrophages: 8.721%; MtTrpRS: -1.49%; CoaBC: 1.107%.